Source: the supplement of paper PMC4604168 (melanoma cell lines)
Some of the results follow. Single values are uncertain, as repeats are few or missing.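 Cells were imaged in 1,536-well plates, and nuclei stained with an antibody against cleaved PARP were counted against all DNA-stained nuclei to give the apoptosis fraction. Screening doses were chosen to leave most cells alive, and resting and induced cleaved-PARP levels differ strongly between cell lines.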

Key:
Experiment in all cases: cleaved PARP positive nuclei fraction relative to DMSO control; melanoma cells; higher = more apoptosis
Settings in all cases: library dose: low library concentration; 72 h
[1] = test system: 501Mel
[2] = test system: A101D
[3] = test system: A2058
[4] = test system: A375
[5] = test system: C32
[6] = test system: CBRC008 (line from a melanoma biopsy)
[7] = test system: CBRC013 (line from a melanoma biopsy)
[8] = test system: CBRC014 (line from a melanoma biopsy)
[9] = test system: CBRC016 (line from a melanoma biopsy)
[10] = test system: CBRC017 (line from a melanoma biopsy)
[11] = test system: COLO792
[12] = test system: COLO800
[13] = test system: COLO829
[14] = test system: G361
[15] = test system: IPC-298
[16] = test system: IST-MEL1
[17] = test system: LB2518-MEL
[18] = test system: LOXIMVI
[19] = test system: MEL-HO

SMILES | cleaved PARP positive nuclei fraction [1] [%] | cleaved PARP positive nuclei fraction [2] [%] | cleaved PARP positive nuclei fraction [3] [%] | cleaved PARP positive nuclei fraction [4] [%] | cleaved PARP positive nuclei fraction [5] [%] | cleaved PARP positive nuclei fraction [6] [%] | cleaved PARP positive nuclei fraction [7] [%] | cleaved PARP positive nuclei fraction [8] [%] | cleaved PARP positive nuclei fraction [9] [%] | cleaved PARP positive nuclei fraction [10] [%] | cleaved PARP positive nuclei fraction [11] [%] | cleaved PARP positive nuclei fraction [12] [%] | cleaved PARP positive nuclei fraction [13] [%] | cleaved PARP positive nuclei fraction [14] [%] | cleaved PARP positive nuclei fraction [15] [%] | cleaved PARP positive nuclei fraction [16] [%] | cleaved PARP positive nuclei fraction [17] [%] | cleaved PARP positive nuclei fraction [18] [%] | cleaved PARP positive nuclei fraction [19] [%]
C[C@@H]1CCN(C(=O)CC#N)C[C@@H]1N(C)c1ncnc2[nH]ccc12 + O=C(O)c1ccc(-c2c[nH]c3ncc(-c4ccccc4)cc23)cc1C1CCCC1 [GSK650394] (first compound 1 µM, partner dose 0.16 µM) | 85.7 | 83.7 | 112 | 150 | 221 | 235 | 81.6 | 89.9 | 158 | 150 | 214 | 394 | 147 | 84 | 134 | 154 | 88 | 50.6 | 150
Cn1nnc2c(C(N)=O)ncn2c1=O [temozolomide] + CN(C)S(=O)(=O)c1ccc2c(c1)/C(=C/c1cc3c([nH]1)CCCC3)C(=O)N2 [SU6656] (first compound 2 µM, partner dose 0.4 µM) | 83.5 | 100 | 126 | 81.5 | 149 | 121 | 89.4 | 118 | 191 | 160 | 92.3 | 87.4 | 155 | 149 | 105 | 107 | 48.7 | 42.4 | 73.1
CC1(C)NC(=O)N(c2ccc([N+](=O)[O-])c(C(F)(F)F)c2)C1=O [nilutamide] + C=CCn1c(=O)c2cnc(Nc3ccc(N4CCN(C)CC4)cc3)nc2n1-c1cccc(C(C)(C)O)n1 [MK1775] (first compound 1 µM, partner dose 0.02 µM) | 95.6 | 390 | 34.6 | 152 | 80.6 | 261 | 128 | 108 | 141 | 190 | 160 | 52.3 | 137 | 152 | 107 | 197 | 47.5 | 51.8 | 46.8
C=CCNC1=C2C[C@@H](C)C[C@H](OC)[C@H](O)[C@@H](C)/C=C(\C)[C@H](OC(N)=O)[C@@H](OC)/C=C\C=C(/C)C(=O)NC(=CC1=O)C2=O [Tanespimycin] + Cc1cc(N2CCOCC2)cc2[nH]c(-c3c(NC[C@@H](O)c4cccc(Cl)c4)cc[nH]c3=O)nc12 [BMS536924] (first compound 0.002 µM, partner dose 0.2 µM) | 138 | 254 | 97.8 | 125 | 284 | 242 | 137 | 89.3 | 103 | 101 | 141 | 104 | 157 | 63.1 | 93.8 | 102 | 183 | 32.5 | 62.8
C#Cc1cccc(Nc2ncnc3cc(OCCOC)c(OCCOC)cc23)c1 [erlotinib] + NC(=O)Nc1cc(-c2cccc(F)c2)sc1C(=O)N[C@H]1CCCNC1 [AZD7762] (first compound 0.8 µM, partner dose 0.02 µM) | 174 | 52.1 | 129 | 834 | 101 | 205 | 146 | 92.3 | 116 | 104 | 97.9 | 70 | 116 | 64.4 | 90.9 | 70.3 | 63.7 | 29.9 | 170
Cc1ccc(NC(=O)c2cccc(N(C)C)c2)cc1NC(=O)c1ccc(O)cc1 + Cc1cc(N2CCOCC2)cc2[nH]c(-c3c(NC[C@@H](O)c4cccc(Cl)c4)cc[nH]c3=O)nc12 [BMS536924] (first compound 2 µM, partner dose 0.2 µM) | 56.7 | 29.2 | 96.1 | 38.4 | 131 | 212 | 96.9 | 103 | 44.8 | 126 | 153 | 181 | 86.1 | 75.7 | 55.9 | 112 | 594 | 54.2 | 71.1
Cc1cc(N2CCOCC2)cc2[nH]c(-c3c(NC[C@@H](O)c4cccc(Cl)c4)cc[nH]c3=O)nc12 + CN(C)S(=O)(=O)c1ccc2c(c1)/C(=C/c1cc3c([nH]1)CCCC3)C(=O)N2 [SU6656] (first compound 0.2 µM, partner dose 0.4 µM) | 96.1 | 51.2 | 84 | 152 | 628 | 481 | 173 | 128 | 94.4 | 98.9 | 241 | 108 | 274 | 249 | 129 | 54.3 | 114 | 54.9 | 73.8
O=C(CCCCCCC(=O)Nc1ccccc1)NO [vorinostat] + Cc1cc(N2CCOCC2)cc2[nH]c(-c3c(NC[C@@H](O)c4cccc(Cl)c4)cc[nH]c3=O)nc12 [BMS536924] (first compound 0.08 µM, partner dose 0.2 µM) | 104 | 40.9 | 201 | 62.3 | 275 | 185 | 127 | 93.1 | 27 | 203 | 114 | 289 | 156 | 101 | 22.8 | 97.3 | 169 | 116 | 108
Cn1c(Nc2ccc(C(F)(F)F)cc2)nc2cc(Oc3ccnc(-c4ncc(C(F)(F)F)[nH]4)c3)ccc21 + C=CCn1c(=O)c2cnc(Nc3ccc(N4CCN(C)CC4)cc3)nc2n1-c1cccc(C(C)(C)O)n1 [MK1775] (first compound 0.08 µM, partner dose 0.02 µM) | 175 | 80 | 288 | 623 | 250 | 138 | 96.5 | 124 | 192 | 117 | 998 | 90.9 | 181 | 357 | 179 | 146 | 185 | 55 | 43.4
OCc1c[nH]c2ccccc12 [Indole-3-carbinol] + O=C(O)c1ccc(-c2c[nH]c3ncc(-c4ccccc4)cc23)cc1C1CCCC1 [GSK650394] (first compound 0.8 µM, partner dose 0.16 µM) | 156 | 87 | 119 | 107 | 119 | 121 | 77.1 | 86.1 | 181 | 116 | 142 | 150 | 134 | 142 | 96.1 | 65 | 91.4 | 14.8 | 129
C=CCNC1=C2C[C@@H](C)C[C@H](OC)[C@H](O)[C@@H](C)/C=C(\C)[C@H](OC(N)=O)[C@@H](OC)/C=C\C=C(/C)C(=O)NC(=CC1=O)C2=O [Tanespimycin] + C=CCn1c(=O)c2cnc(Nc3ccc(N4CCN(C)CC4)cc3)nc2n1-c1cccc(C(C)(C)O)n1 [MK1775] (first compound 0.002 µM, partner dose 0.02 µM) | 85 | 116 | 146 | 134 | 223 | 118 | 156 | 121 | 196 | 100 | 121 | 88 | 48.9 | 69.7 | 95.6 | 34.8 | 203 | 64.5 | 75.1
O=C(Nc1cccc(Cl)c1)Nc1ncc(CCNc2ncnc3ccsc23)s1 + NCC(=O)Nc1ccc(-n2nc(C(F)(F)F)cc2-c2ccc3c(ccc4ccccc43)c2)cc1 [OSU03012] (first compound 0.0008 µM, partner dose 1 µM) | 192 | 297 | 99 | 541 | 100 | 51.4 | 69.4 | 91.2 | 129 | 103 | 54.7 | 106 | 110 | 153 | 88.4 | 36 | 115 | 78.7 | 66.1
Cn1cncc1[C@@](N)(c1ccc(Cl)cc1)c1ccc2c(c1)c(-c1cccc(Cl)c1)cc(=O)n2C [tipifarnib] + CN(C)S(=O)(=O)c1ccc2c(c1)/C(=C/c1cc3c([nH]1)CCCC3)C(=O)N2 [SU6656] (first compound 0.01 µM, partner dose 0.4 µM) | 89.5 | 267 | 77.6 | 155 | 104 | 57.7 | 106 | 109 | 240 | 122 | 68.1 | 99.3 | 204 | 116 | 101 | 136 | 128 | 53 | 47
C=CCNC1=C2C[C@@H](C)C[C@H](OC)[C@H](O)[C@@H](C)/C=C(\C)[C@H](OC(N)=O)[C@@H](OC)/C=C\C=C(/C)C(=O)NC(=CC1=O)C2=O [Tanespimycin] + O=C(CCCCCCC(=O)Nc1ccccc1)NO [vorinostat] (first compound 0.002 µM, partner dose 0.08 µM) | 91.4 | 83.5 | 80.9 | 70.1 | 132 | 50.8 | 75.7 | 90.8 | 123 | 86.4 | 123 | 43 | 84.8 | 141 | 93.9 | 151 | 83.5 | 167 | 106
CC(=O)c1c(C)c2cnc(Nc3ccc(N4CCNCC4)cn3)nc2n(C2CCCC2)c1=O [palbociclib] + O=C(CCCCCCC(=O)Nc1ccccc1)NO [vorinostat] (first compound 0.04 µM, partner dose 0.08 µM) | 129 | 89.7 | 31.9 | 110 | 64.7 | 134 | 65.3 | 120 | 123 | 125 | 35.6 | 33.3 | 50.1 | 53.9 | 49.6 | 54.7 | 57.2 | 30.8 | 109
Cc1nc(Nc2ncc(C(=O)Nc3c(C)cccc3Cl)s2)cc(N2CCN(CCO)CC2)n1 [dasatanib] + Cn1cncc1[C@@](N)(c1ccc(Cl)cc1)c1ccc2c(c1)c(-c1cccc(Cl)c1)cc(=O)n2C [tipifarnib] (first compound 0.004 µM, partner dose 0.01 µM) | 114 | 109 | 119 | 151 | 184 | 278 | 144 | 115 | 75.1 | 117 | 161 | 101 | 18.1 | 169 | 109 | 56.8 | 174 | 88.1 | 179
C=CCNC1=C2C[C@@H](C)C[C@H](OC)[C@H](O)[C@@H](C)/C=C(\C)[C@H](OC(N)=O)[C@@H](OC)/C=C\C=C(/C)C(=O)NC(=CC1=O)C2=O [Tanespimycin] + COc1cc(Nc2ncc(F)c(Nc3ccc4c(n3)NC(=O)C(C)(C)O4)n2)cc(OC)c1OC [Tamatinib] (first compound 0.002 µM, partner dose 0.4 µM) | 179 | 524 | 259 | 146 | 81.7 | 76.3 | 185 | 551 | 131 | 152 | 214 | 37.4 | 146 | 60.3 | 56.9 | 102 | 194 | 79.9 | 189

Single records (already shown). Values in the order: cleaved PARP positive nuclei fraction [1] [%] | cleaved PARP positive nuclei fraction [2] [%] | cleaved PARP positive nuclei fraction [3] [%] | cleaved PARP positive nuclei fraction [4] [%] | cleaved PARP positive nuclei fraction [5] [%] | cleaved PARP positive nuclei fraction [6] [%] | cleaved PARP positive nuclei fraction [7] [%] | cleaved PARP positive nuclei fraction [8] [%] | cleaved PARP positive nuclei fraction [9] [%] | cleaved PARP positive nuclei fraction [10] [%] | cleaved PARP positive nuclei fraction [11] [%] | cleaved PARP positive nuclei fraction [12] [%] | cleaved PARP positive nuclei fraction [13] [%] | cleaved PARP positive nuclei fraction [14] [%] | cleaved PARP positive nuclei fraction [15] [%] | cleaved PARP positive nuclei fraction [16] [%] | cleaved PARP positive nuclei fraction [17] [%] | cleaved PARP positive nuclei fraction [18] [%] | cleaved PARP positive nuclei fraction [19] [%]
Cn1nnc2c(C(N)=O)ncn2c1=O [temozolomide] + CN(C)S(=O)(=O)c1ccc2c(c1)/C(=C/c1cc3c([nH]1)CCCC3)C(=O)N2 [SU6656] (first compound 2 µM, partner dose 0.4 µM) is listed as 83.5 | 100 | 126 | 81.5 | 149 | 121 | 89.4 | 118 | 191 | 160 | 92.3 | 87.4 | 155 | 149 | 105 | 107 | 48.7 | 42.4 | 73.1
Cn1cncc1[C@@](N)(c1ccc(Cl)cc1)c1ccc2c(c1)c(-c1cccc(Cl)c1)cc(=O)n2C [tipifarnib] + CN(C)S(=O)(=O)c1ccc2c(c1)/C(=C/c1cc3c([nH]1)CCCC3)C(=O)N2 [SU6656] (first compound 0.01 µM, partner dose 0.4 µM) is listed as 89.5 | 267 | 77.6 | 155 | 104 | 57.7 | 106 | 109 | 240 | 122 | 68.1 | 99.3 | 204 | 116 | 101 | 136 | 128 | 53 | 47
